{"source": "paper PMC12040169", "about": "(PLOS Biology, 2025)", "note": "The other results are listed elsewhere or left out.", "data": [{"tested_on": "T1, CTL2-GFP (C. trachomatis L2/434/Bu, GFP-expressing)", "T1 construct": "L2/434/Bu, GFP-expressing", "design": "species or system HeLa; Intracellular C. trachomatis growth in HeLa cells, bulk GFP fluorescence relative to DMSO", "settings": "bulk GFP, single well; 28.5 h, 10 µM; inhibitor", "units": {"% of control remaining": "%"}, "values": [{"molecule": "COc1ccc(CN2CCCN(C(=O)c3ccnc(Cl)c3)CC2)cc1", "note": "[CBK305364]", "% of control remaining": 117.298}, {"molecule": "Nc1nc2c(nc(Br)n2[C@H]2C[C@@H](O)[C@@H](CO)O2)c(=O)[nH]1", "note": "[CBK201333]", "% of control remaining": 197.745}, {"molecule": "CSc1c(C#N)c(-c2cc(C(C)(C)C)on2)nn1C", "note": "[CBK006360]", "% of control remaining": 126.04}, {"molecule": "CN1CCN(c2cc(-c3cccc(CO)c3)nc3ccnn23)CC1", "note": "[CBK037099]", "% of control remaining": 158.133}, {"molecule": "c1ccc(CCNc2nccnc2-c2ccoc2)nc1", "note": "[CBK036790]", "% of control remaining": 200.125}, {"molecule": "O=C1CC[C@@H](NCc2ccccc2O)[C@H](c2cc(F)cc(F)c2)N1", "note": "[CBK283126]", "% of control remaining": 86.5702}, {"molecule": "COc1ccccc1-c1nnc(SC)n1-c1ccc(C)cc1", "note": "[CBK076670]", "% of control remaining": 97.1202}, {"molecule": "CN1CCN(C(=O)c2ccc(Cl)cc2)CC1", "note": "[CBK126096]", "% of control remaining": 140.574}, {"molecule": "COc1ccc(C(=O)N[C@H]2CCN3C(=O)c4ccc(Cl)cc4NC(=O)[C@@H]3C2)cc1", "note": "[CBK289564]", "% of control remaining": 131.483}, {"molecule": "NC(=O)c1c(NC(=O)c2ccc(S(=O)(=O)N3CCCC3)cc2)sc2c1CCCC2", "note": "[CBK262486]", "% of control remaining": 93.0509}, {"molecule": "COc1ccc2c(c1)cc(C(=O)NCCN1CCCCC1CO)n2C", "note": "(stereo not drawn) [CBK306621]", "% of control remaining": 108.396}, {"molecule": "CC1=CC2=NC3(CCC3)[C@@H]3C[C@@H](O)[C@@H](O)[C@@H]3N2O1", "note": "[CBK303257]", "% of control remaining": 181.11}, {"molecule": "Cc1cc(C)n(C(C)CC(=O)N2CCN(C)CC2c2ccccc2)n1", "note": "(stereo not drawn) [CBK282014]", "% of control remaining": 144.148}, {"molecule": "CCOc1ccc(CNc2ccc(C3c4ccsc4CCN3C(C)=O)cc2)cc1", "note": "(stereo not drawn) [CBK286451]", "% of control remaining": 118.422}, {"molecule": "Cn1cc(-c2nc(C(=O)NCc3ccnc(N4CCCC4)c3)cs2)cn1", "note": "[CBK305666]", "% of control remaining": 121.95}, {"molecule": "CCOC(=O)Cc1ccc(Nc2cc(-c3ccc(N(C)C)cc3)ncn2)cc1", "note": "[CBK090712]", "% of control remaining": 150.425}, {"molecule": "Cc1ccc(CSCCNS(=O)(=O)c2ccc3ccccc3c2)cc1", "note": "[CBK268048]", "% of control remaining": 102.61}, {"molecule": "Cc1ccc(SC(C)C(=O)NCCCN2CCOCC2)cc1", "note": "(stereo not drawn) [CBK268624]", "% of control remaining": 103.729}, {"molecule": "Cc1[nH]c2ccc(CNC(=O)NC3CCCc4cn[nH]c43)cc2c1C", "note": "(stereo not drawn) [CBK305488]", "% of control remaining": 152.056}, {"molecule": "Nc1nc(OCc2cccs2)cnc1-c1ccsc1", "note": "[CBK145161]", "% of control remaining": 107.986}, {"molecule": "O=C(/C=C(\\c1ccccc1)n1cncn1)c1ccc(Cl)cc1", "note": "[CBK262089]", "% of control remaining": 112.697}, {"molecule": "COc1ccc(-c2nnc(SCC(=O)NN)n2-c2ccccc2)cc1", "note": "[CBK263157]", "% of control remaining": 119.835}, {"molecule": "O=C(O)c1cccc(NS(=O)(=O)c2cc3ccccc3o2)c1", "note": "[CBK200423]", "% of control remaining": 125.533}, {"molecule": "CCC(C)NC(=O)Cn1c(C2CCOCC2)cc2cccnc21", "note": "(stereo not drawn) [CBK285390]", "% of control remaining": 104.349}, {"molecule": "O=C(O)CCC(=O)Nc1ccc(NC(=O)C2CCCCC2)c(Cl)c1", "note": "[CBK268867]", "% of control remaining": 166.26}, {"molecule": "CCc1n[nH]c(SCc2ccc(Br)cc2)n1", "note": "[CBK265221]", "% of control remaining": 88.9293}, {"molecule": "CC(C)(C)C1=CC2=NC3(CCC3)C3C[C@@](C)(O)[C@@H](O)[C@@H]3N2O1", "note": "(stereo partly drawn) [CBK303263]", "% of control remaining": 109.231}, {"molecule": "COc1ccccc1C(=O)NCCNC(=O)c1ccccn1", "note": "[CBK269174]", "% of control remaining": 117.999}, {"molecule": "O=C(O)CN1C(=O)[C@@H]2Cc3ccccc3CN2C1=O", "note": "[CBK202728]", "% of control remaining": 132.573}, {"molecule": "N#Cc1ccc(CN2CCC(NC3CCCn4nccc43)C2=O)cc1", "note": "(stereo not drawn) [CBK304770]", "% of control remaining": 109.828}, {"molecule": "O=C(c1ccc(C#CC2(O)CCCCC2)cc1)N1CCN(Cc2ccccc2)CC1", "note": "[CBK263094]", "% of control remaining": 100}, {"molecule": "O=C(O)CC(NS(=O)(=O)c1cccc([N+](=O)[O-])c1)c1ccccc1", "note": "(stereo not drawn) [CBK262641]", "% of control remaining": 115.28}, {"molecule": "COc1c(Br)cc(/C=C2\\SC(=O)NC2=O)cc1Br", "note": "[CBK102455]", "% of control remaining": 100}, {"molecule": "CCOc1ccc2ccccc2c1CNCCc1ccc(S(N)(=O)=O)cc1", "note": "[CBK268732C]", "% of control remaining": 134.64}, {"molecule": "CCN(CC)C(=O)CN1C(=O)N2CCCN=C2c2ccccc21", "note": "[CBK284398]", "% of control remaining": 142.827}, {"molecule": "COc1ccc2c(c1OC)C(=O)N(c1cccc(/C=C/C(=O)O)c1)C2", "note": "[CBK109932]", "% of control remaining": 141.491}, {"molecule": "O=C(O)CSc1ccc(Oc2ccc(SCC(=O)O)cc2)cc1", "note": "[CBK261254]", "% of control remaining": 100}, {"molecule": "c1ccc(CCN2CCC(N3CCOCC3)CC2)cc1", "note": "[CBK261928]", "% of control remaining": 124.798}, {"molecule": "O=C(NCc1csc2c1CCCC2)N1CCCC(c2cc(O)ncn2)C1", "note": "(stereo not drawn) [CBK306705]", "% of control remaining": 103.606}, {"molecule": "CCc1cc(=O)oc2cc(OCC(=O)O)c(Cl)cc12", "note": "[CBK265182]", "% of control remaining": 100}, {"molecule": "NC(=O)CN1CCC(Oc2nccnc2OCc2ccc(Cl)c(Cl)c2)CC1", "note": "[CBK083110]", "% of control remaining": 103.168}, {"molecule": "CN1CCN(C(=O)c2sccc2NS(=O)(=O)c2ccc3ccccc3c2)CC1", "note": "[CBK004631]", "% of control remaining": 118.561}, {"molecule": "Cc1ccc(S(=O)(=O)Nc2cccc(C(=O)N3CCN(C)CC3)c2)cc1[N+](=O)[O-]", "note": "[CBK038976]", "% of control remaining": 120.157}, {"molecule": "O=C(CSc1n[nH]c(=O)n1Cc1ccccc1)NCc1ccc(-c2ccc(Cl)cc2)o1", "note": "[CBK296963]", "% of control remaining": 68.9195}, {"molecule": "CCOC(=O)N1CCN(S(=O)(=O)c2ccc3c(c2)oc(=O)n3CC)CC1", "note": "[CBK305055]", "% of control remaining": 105.84}, {"molecule": "O=C(CCc1ccccc1)Nc1cccc(N2C(=O)C3C4c5ccccc5C(c5ccccc54)C3C2=O)c1", "note": "(stereo not drawn) [CBK265409]", "% of control remaining": 100}, {"molecule": "N#CCCn1cc(C(=O)N2CCOCC2)c(-c2cccs2)n1", "note": "[CBK306195]", "% of control remaining": 94.1725}, {"molecule": "O=C1/C(=C/NNc2nc3ccccc3s2)Sc2ccccc21", "note": "[CBK261627]", "% of control remaining": 74.4787}, {"molecule": "CCC(CC)C(=O)N1CCCC1c1n[nH]cc1-c1ccncc1", "note": "(stereo not drawn) [CBK283467]", "% of control remaining": 120.71}, {"molecule": "CCOC(=O)CC1=C(C(=O)OCC)C(c2ccccc2C(F)(F)F)C(C#N)=C(N)O1", "note": "(stereo not drawn) [CBK262710]", "% of control remaining": 77.015}, {"molecule": "CC(NC(=O)c1cc2ccc(N(C)C)cc2[nH]1)c1ccccn1", "note": "(stereo not drawn) [CBK281821]", "% of control remaining": 134.786}]}]}
